PubChem BioAssay AID1259405 – NCATS | 2018
This is one part, drawn at random, of about 50,000 deposited reagents. About 4,000 of them (8%) count as active. 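Mouse siRNA library applied to hamster cells; one well for each siRNA.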 Reagents against one gene are numbered here.

- Screen: 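Knock-downs that lift recombinant protein yield in hamster ovary cells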 (primary screen)
- Cells: Chinese hamster CHO-K1 ovary cells with stable secreted eGFP expression
- Knock-down reagent: single siRNA against mouse genes, 0.8 pmol siRNA per well (2 µl of 400 nM stock)
- Duration: 3 days
- Detection: 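Per-well intracellular GFP measured by laser scanning cytometry, plus viability from ATP luminescence, each relative to plate median of non-targeting control wells, in %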
- Reading the numbers: GFP, % of control: higher = more GFP per well, higher productivity; viability (ATP), % of control: higher = more viable cells (more ATP)
- Rule for the call: 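a knock-down is called active if GFP reaches 120% or more of non-targeting control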

H2-Q2 (histocompatibility 2, Q region locus 2) #1 gave GFP, % of control 38.3; viability (ATP), % of control 75.1; inactive. Knock-down of H2-Q2 (histocompatibility 2, Q region locus 2) #2 gave: GFP, % of control 90.2; viability (ATP), % of control 93; inactive. Depletion of H2-Q2 (histocompatibility 2, Q region locus 2) #3 came out at: GFP, % of control 85.3; viability (ATP), % of control 96.5; inactive. Vkorc1l1 (vitamin K epoxide reductase complex, subunit 1-like 1) #1 showed GFP, % of control 49.3; viability (ATP), % of control 30.7; inactive. Against Vkorc1l1 (vitamin K epoxide reductase complex, subunit 1-like 1) #2, the values are GFP, % of control 91.6; viability (ATP), % of control 72.2; inactive. Against Vkorc1l1 (vitamin K epoxide reductase complex, subunit 1-like 1) #3 the deposit lists GFP, % of control 82.3; viability (ATP), % of control 70.8; inactive.

Kdm5a (lysine demethylase 5A) #1 scored GFP, % of control 96; viability (ATP), % of control 104; inactive. Kdm5a (lysine demethylase 5A) #2 scored GFP, % of control 34.6; viability (ATP), % of control 58.7; inactive. For Kdm5a (lysine demethylase 5A) #3, the values are GFP, % of control 108; viability (ATP), % of control 80.3; inactive. With knock-down of Tnfaip3 (tumor necrosis factor, alpha-induced protein 3) #1 the results were GFP, % of control 69.5; viability (ATP), % of control 69.4; inactive. Depletion of Tnfaip3 (tumor necrosis factor, alpha-induced protein 3) #2 resulted in: GFP, % of control 91; viability (ATP), % of control 86.8; inactive. With knock-down of Tnfaip3 (tumor necrosis factor, alpha-induced protein 3) #3, the screen gave GFP, % of control 73.2; viability (ATP), % of control 53.1; inactive.

Silencing of Syf2 (SYF2 homolog, RNA splicing factor (S. cerevisiae)) #1 gave: GFP, % of control 59.7; viability (ATP), % of control 59.4; inactive. Syf2 (SYF2 homolog, RNA splicing factor (S. cerevisiae)) #2 gave GFP, % of control 91.3; viability (ATP), % of control 95.9; inactive. Knock-down of Syf2 (SYF2 homolog, RNA splicing factor (S. cerevisiae)) #3 gave: GFP, % of control 24.1; viability (ATP), % of control 22.2; inactive. Silencing of Lyrm1 (LYR motif containing 1) #1 gave: GFP, % of control 77.4; viability (ATP), % of control 83.2; inactive. Lyrm1 (LYR motif containing 1) #2 gave GFP, % of control 78.6; viability (ATP), % of control 74.9; inactive. Lyrm1 (LYR motif containing 1) #3 scored GFP, % of control 80.5; viability (ATP), % of control 81.2; inactive.

2 entries from above, arranged by “GFP, % of control”, ascending:
Tnfaip3 (tumor necrosis factor, alpha-induced protein 3) #3 → GFP, % of control: 73.2; viability (ATP), % of control: 53.1; Outcome: inactive
Tnfaip3 (tumor necrosis factor, alpha-induced protein 3) #2 → GFP, % of control: 91; viability (ATP), % of control: 86.8; Outcome: inactive

Continued:
Commd7 (COMM domain containing 7) #1 scored GFP, % of control 85.7; viability (ATP), % of control 89.7; inactive. For Commd7 (COMM domain containing 7) #2, the values are GFP, % of control 85.7; viability (ATP), % of control 77.2; inactive. With knock-down of Commd7 (COMM domain containing 7) #3, the record shows GFP, % of control 72.4; viability (ATP), % of control 105; inactive. Ssh2 (slingshot protein phosphatase 2) #1 showed GFP, % of control 100; viability (ATP), % of control 74.2; inactive. Ssh2 (slingshot protein phosphatase 2) #2 showed GFP, % of control 55.2; viability (ATP), % of control 69.4; inactive. Ssh2 (slingshot protein phosphatase 2) #3 showed GFP, % of control 116; viability (ATP), % of control 71.7; inactive.

For Slc10a7 #1, the values are GFP, % of control 143; viability (ATP), % of control 88.9; active. With knock-down of Slc10a7 #2, the record shows GFP, % of control 79.7; viability (ATP), % of control 89.4; inactive. Against Slc10a7 #3, the values are GFP, % of control 79.9; viability (ATP), % of control 62.9; inactive.
